Results on 50 targets are retold here after the supplement of paper PMC7666118.

Chains of the proteins cited; added tags and fusions are not shown. Lines headed by an entry give the natural chain unless they say otherwise; changes in a name come on top.
UniProt Q9UKR5: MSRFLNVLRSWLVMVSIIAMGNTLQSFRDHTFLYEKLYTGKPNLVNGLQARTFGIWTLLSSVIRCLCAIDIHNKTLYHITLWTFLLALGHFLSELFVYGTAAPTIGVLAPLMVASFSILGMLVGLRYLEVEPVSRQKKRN
UniProt Q13185: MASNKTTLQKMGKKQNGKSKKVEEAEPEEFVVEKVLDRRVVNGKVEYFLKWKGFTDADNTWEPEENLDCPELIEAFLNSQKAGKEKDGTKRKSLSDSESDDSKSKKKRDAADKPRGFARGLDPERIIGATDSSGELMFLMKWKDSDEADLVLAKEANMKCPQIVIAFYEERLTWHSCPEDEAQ
UniProt Q9BU61: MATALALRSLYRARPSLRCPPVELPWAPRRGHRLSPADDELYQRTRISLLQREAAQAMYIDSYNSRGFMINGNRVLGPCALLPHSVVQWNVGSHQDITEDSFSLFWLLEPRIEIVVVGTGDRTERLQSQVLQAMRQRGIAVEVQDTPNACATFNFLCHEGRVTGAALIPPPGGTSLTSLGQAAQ
UniProt Q6ICL3: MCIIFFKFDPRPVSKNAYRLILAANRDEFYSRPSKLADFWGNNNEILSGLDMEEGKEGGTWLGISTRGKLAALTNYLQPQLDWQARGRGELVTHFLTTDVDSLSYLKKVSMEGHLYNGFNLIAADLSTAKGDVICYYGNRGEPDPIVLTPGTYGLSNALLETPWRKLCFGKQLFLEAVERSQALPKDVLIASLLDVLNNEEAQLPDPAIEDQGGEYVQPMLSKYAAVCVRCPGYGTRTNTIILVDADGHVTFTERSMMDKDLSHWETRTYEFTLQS
UniProt A8MVS5: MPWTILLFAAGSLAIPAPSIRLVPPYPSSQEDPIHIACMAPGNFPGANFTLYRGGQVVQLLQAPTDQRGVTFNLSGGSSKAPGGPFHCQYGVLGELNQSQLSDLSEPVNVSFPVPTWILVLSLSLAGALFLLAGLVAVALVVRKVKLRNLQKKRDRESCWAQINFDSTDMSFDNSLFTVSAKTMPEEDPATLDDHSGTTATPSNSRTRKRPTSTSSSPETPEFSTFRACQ
UniProt O15234, whole entry: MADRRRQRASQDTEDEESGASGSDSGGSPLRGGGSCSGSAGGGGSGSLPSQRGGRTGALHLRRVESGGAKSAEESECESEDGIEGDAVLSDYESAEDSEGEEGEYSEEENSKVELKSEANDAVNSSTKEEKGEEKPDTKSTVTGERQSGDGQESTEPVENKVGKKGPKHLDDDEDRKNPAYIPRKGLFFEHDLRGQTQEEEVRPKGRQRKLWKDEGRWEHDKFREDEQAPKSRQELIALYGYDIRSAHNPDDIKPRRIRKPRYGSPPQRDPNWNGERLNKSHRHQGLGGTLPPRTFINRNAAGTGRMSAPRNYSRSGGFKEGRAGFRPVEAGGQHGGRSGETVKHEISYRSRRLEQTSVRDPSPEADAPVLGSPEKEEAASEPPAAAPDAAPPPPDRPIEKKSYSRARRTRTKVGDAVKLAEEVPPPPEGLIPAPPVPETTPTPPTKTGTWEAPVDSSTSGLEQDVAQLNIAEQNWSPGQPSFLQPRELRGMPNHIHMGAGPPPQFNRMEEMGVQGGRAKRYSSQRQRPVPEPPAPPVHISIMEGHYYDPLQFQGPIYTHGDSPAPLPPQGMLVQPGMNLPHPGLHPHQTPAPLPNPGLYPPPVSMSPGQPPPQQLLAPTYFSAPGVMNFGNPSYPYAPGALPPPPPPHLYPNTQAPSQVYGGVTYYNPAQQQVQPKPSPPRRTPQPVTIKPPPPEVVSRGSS
UniProt Q9Y6A4: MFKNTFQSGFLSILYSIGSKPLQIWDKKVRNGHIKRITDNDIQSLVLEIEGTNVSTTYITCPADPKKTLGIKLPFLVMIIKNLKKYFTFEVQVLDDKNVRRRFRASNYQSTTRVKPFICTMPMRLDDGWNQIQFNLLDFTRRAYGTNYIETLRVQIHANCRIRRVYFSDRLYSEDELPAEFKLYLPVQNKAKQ
UniProt A5PLN9: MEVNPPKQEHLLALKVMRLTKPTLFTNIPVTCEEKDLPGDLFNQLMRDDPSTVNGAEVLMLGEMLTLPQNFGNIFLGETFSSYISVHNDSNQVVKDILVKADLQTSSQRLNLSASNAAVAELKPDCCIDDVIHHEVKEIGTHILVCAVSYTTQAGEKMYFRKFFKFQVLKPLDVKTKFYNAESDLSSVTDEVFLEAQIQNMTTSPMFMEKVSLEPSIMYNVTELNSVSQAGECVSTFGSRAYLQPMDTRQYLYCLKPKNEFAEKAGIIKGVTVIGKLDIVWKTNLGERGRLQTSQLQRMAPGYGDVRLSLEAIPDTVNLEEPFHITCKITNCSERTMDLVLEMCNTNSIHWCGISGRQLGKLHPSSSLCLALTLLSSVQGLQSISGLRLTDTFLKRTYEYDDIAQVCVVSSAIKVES
UniProt Q9BQ75: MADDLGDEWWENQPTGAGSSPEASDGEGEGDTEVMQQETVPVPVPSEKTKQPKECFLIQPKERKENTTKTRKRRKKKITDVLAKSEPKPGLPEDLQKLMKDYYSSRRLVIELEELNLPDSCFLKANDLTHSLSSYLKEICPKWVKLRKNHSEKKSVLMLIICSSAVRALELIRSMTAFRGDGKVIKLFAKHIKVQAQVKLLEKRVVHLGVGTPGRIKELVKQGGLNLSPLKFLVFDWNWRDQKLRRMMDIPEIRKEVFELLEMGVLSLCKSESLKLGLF
UniProt Q14790: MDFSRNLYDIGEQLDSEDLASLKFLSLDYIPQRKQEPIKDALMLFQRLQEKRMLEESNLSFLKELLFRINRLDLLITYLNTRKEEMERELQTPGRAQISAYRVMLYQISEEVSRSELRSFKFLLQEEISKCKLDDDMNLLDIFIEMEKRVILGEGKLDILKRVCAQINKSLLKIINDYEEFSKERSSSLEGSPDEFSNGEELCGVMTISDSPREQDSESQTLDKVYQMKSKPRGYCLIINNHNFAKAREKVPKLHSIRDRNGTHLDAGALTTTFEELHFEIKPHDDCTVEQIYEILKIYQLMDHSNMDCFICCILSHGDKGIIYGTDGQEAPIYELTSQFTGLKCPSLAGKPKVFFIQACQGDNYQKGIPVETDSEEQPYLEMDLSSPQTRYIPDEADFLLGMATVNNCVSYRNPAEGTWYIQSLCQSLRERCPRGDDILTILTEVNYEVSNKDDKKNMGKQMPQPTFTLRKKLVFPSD
UniProt P0C0L5: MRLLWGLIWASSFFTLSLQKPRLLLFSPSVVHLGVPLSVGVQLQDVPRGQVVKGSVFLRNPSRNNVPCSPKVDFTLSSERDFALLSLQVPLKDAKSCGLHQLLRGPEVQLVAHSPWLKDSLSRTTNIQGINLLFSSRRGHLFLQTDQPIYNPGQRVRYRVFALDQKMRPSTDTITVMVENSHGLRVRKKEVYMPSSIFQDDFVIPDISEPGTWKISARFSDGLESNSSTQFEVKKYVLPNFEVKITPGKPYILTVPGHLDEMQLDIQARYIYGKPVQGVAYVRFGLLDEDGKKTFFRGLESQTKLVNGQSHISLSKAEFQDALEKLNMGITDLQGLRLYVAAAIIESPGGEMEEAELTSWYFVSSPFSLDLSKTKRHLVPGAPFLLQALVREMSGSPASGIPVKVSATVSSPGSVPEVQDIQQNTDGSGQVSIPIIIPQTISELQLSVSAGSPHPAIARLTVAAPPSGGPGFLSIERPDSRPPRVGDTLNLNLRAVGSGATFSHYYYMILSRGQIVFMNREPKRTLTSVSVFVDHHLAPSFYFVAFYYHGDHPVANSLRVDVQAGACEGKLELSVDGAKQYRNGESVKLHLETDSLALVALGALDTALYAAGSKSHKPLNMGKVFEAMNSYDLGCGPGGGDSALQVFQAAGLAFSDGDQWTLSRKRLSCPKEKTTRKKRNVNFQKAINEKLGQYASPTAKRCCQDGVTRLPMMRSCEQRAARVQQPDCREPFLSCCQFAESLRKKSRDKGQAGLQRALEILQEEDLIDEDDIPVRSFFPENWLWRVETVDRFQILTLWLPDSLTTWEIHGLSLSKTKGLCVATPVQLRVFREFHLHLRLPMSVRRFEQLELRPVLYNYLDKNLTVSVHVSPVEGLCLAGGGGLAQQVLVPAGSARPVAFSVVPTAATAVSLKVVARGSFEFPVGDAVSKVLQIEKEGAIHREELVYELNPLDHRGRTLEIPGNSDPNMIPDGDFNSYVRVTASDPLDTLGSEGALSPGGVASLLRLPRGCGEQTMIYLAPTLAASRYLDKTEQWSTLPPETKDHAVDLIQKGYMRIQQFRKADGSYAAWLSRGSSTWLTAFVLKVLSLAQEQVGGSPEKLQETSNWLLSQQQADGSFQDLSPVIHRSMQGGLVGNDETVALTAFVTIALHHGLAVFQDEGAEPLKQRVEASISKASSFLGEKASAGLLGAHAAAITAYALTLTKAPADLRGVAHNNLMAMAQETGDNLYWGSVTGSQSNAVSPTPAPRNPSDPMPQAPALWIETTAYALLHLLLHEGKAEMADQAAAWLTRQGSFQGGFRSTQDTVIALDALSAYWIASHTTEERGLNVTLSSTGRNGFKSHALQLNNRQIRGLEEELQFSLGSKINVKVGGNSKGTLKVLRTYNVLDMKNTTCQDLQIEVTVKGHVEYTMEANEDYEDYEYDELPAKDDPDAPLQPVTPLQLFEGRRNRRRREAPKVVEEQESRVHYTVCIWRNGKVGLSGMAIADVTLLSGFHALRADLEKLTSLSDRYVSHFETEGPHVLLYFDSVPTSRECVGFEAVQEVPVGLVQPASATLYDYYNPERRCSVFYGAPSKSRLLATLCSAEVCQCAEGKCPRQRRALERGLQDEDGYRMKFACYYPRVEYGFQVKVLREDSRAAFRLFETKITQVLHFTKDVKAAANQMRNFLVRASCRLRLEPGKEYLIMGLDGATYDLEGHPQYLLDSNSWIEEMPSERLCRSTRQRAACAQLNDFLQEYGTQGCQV
UniProt Q16566: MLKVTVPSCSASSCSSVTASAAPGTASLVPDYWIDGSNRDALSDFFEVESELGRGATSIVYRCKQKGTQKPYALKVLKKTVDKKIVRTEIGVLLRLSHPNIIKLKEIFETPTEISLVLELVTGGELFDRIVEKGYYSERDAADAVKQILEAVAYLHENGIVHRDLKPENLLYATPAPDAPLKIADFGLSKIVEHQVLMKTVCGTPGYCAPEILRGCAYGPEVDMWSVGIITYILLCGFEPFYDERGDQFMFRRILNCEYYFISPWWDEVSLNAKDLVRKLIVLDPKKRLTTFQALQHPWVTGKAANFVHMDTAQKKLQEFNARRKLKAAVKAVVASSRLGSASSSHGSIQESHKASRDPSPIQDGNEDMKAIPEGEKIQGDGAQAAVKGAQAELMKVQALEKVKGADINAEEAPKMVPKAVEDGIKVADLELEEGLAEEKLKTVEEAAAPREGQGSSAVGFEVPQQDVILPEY
UniProt Q8IYB1: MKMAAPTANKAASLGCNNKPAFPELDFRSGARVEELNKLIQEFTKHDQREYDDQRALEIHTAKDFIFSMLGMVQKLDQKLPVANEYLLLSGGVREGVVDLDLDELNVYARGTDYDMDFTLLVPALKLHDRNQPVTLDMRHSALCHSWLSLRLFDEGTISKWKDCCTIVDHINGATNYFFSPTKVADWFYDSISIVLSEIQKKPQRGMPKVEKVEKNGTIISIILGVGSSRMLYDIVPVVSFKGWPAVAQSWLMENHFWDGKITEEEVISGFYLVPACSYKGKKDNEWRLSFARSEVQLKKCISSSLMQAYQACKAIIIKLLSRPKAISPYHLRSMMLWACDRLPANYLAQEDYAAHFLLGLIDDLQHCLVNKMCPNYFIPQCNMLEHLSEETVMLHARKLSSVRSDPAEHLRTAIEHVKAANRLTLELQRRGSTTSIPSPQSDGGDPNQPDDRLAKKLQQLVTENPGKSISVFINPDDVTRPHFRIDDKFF
UniProt Q53F19: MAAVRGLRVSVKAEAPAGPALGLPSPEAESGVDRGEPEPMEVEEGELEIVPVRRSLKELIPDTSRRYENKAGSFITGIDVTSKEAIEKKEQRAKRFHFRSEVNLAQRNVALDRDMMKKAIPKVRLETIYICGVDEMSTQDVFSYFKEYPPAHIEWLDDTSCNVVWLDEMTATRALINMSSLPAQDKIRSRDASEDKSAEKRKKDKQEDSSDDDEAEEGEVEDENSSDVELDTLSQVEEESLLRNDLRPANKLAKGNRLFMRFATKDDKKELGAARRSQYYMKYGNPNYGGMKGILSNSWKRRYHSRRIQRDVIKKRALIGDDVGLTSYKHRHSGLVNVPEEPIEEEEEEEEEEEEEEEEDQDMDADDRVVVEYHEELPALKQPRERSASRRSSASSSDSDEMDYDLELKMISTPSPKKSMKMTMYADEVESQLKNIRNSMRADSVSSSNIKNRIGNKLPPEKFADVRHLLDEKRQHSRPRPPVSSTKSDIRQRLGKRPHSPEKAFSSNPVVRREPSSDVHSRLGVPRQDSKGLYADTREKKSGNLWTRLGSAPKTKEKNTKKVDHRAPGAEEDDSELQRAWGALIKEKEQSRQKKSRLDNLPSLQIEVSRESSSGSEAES
UniProt Q9Y2V2: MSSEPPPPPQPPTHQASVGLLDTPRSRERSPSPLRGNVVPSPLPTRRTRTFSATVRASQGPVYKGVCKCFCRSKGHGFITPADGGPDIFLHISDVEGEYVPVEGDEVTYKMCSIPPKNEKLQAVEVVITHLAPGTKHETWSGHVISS

Compound in this experiment: COc1ccc(Cn2ccc3ccc(C(=O)NO)cc32)cc1
In words: dose-dependent thermal stabilisation call (2D-TPP, DLPTP, 10% FDR) (binary (1 = stabilised)); higher = stabilised by the compound. To be noted: system: HL-60 intact cells; concentration range 0.04-10 µM.

The list shows a part of the results.

Consider C14ORF1 (UniProt Q9UKR5), for which the “dose-dependent thermal stabilisation call” value is inactive: 0.

CASP4 (UniProt P49662): the “dose-dependent thermal stabilisation call” value is inactive: 0.

Take C1ORF174 (UniProt Q8IYL3): the “dose-dependent thermal stabilisation call” value was inactive: 0.

C9ORF167 (UniProt Q9NXH8): the “dose-dependent thermal stabilisation call” value is inactive: 0.

Consider C1QBP (UniProt Q07021), for which the “dose-dependent thermal stabilisation call” value is inactive: 0.

On to C9ORF91 (UniProt Q5VZI3), for which the “dose-dependent thermal stabilisation call” value was inactive: 0.

For C2ORF3 (UniProt P16383), the “dose-dependent thermal stabilisation call” value is inactive: 0.

Consider CBX3 (UniProt Q13185), for which the “dose-dependent thermal stabilisation call” value is inactive: 0.

C2ORF47 (UniProt Q8WWC4): the “dose-dependent thermal stabilisation call” value was inactive: 0.

Consider C3ORF60 (UniProt Q9BU61), for which the “dose-dependent thermal stabilisation call” value is inactive: 0.

C22ORF25 (UniProt Q6ICL3): the “dose-dependent thermal stabilisation call” value was inactive: 0.

For CBLL1 (UniProt Q75N03), the “dose-dependent thermal stabilisation call” value is inactive: 0.

Take C17ORF59 (UniProt Q96GS4): the “dose-dependent thermal stabilisation call” value is inactive: 0.

Regarding CBS (UniProt P35520), the “dose-dependent thermal stabilisation call” value is inactive: 0.

As for C19ORF38 (UniProt A8MVS5), the “dose-dependent thermal stabilisation call” value is inactive: 0.

Turning to CASC3 (UniProt O15234), the “dose-dependent thermal stabilisation call” value was inactive: 0.

As for C19ORF54 (UniProt Q5BKX5), the “dose-dependent thermal stabilisation call” value is inactive: 0.

As to C21ORF70 (UniProt Q9NSI2), the “dose-dependent thermal stabilisation call” value was inactive: 0.

For C2ORF34 (UniProt Q7Z624), the “dose-dependent thermal stabilisation call” value is inactive: 0.

For C2ORF15 (UniProt Q8WU43), the “dose-dependent thermal stabilisation call” value was inactive: 0.

As for C17ORF80 (UniProt Q9BSJ5), the “dose-dependent thermal stabilisation call” value was inactive: 0.

In the case of C4ORF27 (UniProt Q9NWY4), the “dose-dependent thermal stabilisation call” value was inactive: 0.

As to CAMK2D (UniProt Q13557), the “dose-dependent thermal stabilisation call” value was active: 1.

On to C4ORF41 (UniProt Q7Z392), for which the “dose-dependent thermal stabilisation call” value was inactive: 0.

With CACYBP (UniProt Q9HB71), the “dose-dependent thermal stabilisation call” value was inactive: 0.

CASC4 (UniProt Q6P4E1): the “dose-dependent thermal stabilisation call” value is inactive: 0.

Regarding C16ORF80 (UniProt Q9Y6A4), the “dose-dependent thermal stabilisation call” value is inactive: 0.

Regarding CARKD (UniProt Q8IW45), the “dose-dependent thermal stabilisation call” value was inactive: 0.

Consider C5ORF44 (UniProt A5PLN9), for which the “dose-dependent thermal stabilisation call” value is inactive: 0.

C9ORF142 (UniProt Q9BUH6): the “dose-dependent thermal stabilisation call” value was inactive: 0.

For CCAR1 (UniProt Q8IX12), the “dose-dependent thermal stabilisation call” value was inactive: 0.

C2ORF18 (UniProt Q8N357): the “dose-dependent thermal stabilisation call” value was inactive: 0.

Take C18ORF55 (UniProt Q9BVV7): the “dose-dependent thermal stabilisation call” value is inactive: 0.

For the target C1ORF112 (UniProt Q9NSG2), the “dose-dependent thermal stabilisation call” value was inactive: 0.

Regarding CALU (UniProt O43852), the “dose-dependent thermal stabilisation call” value was inactive: 0.

On to C2ORF56 (UniProt Q7L592), for which the “dose-dependent thermal stabilisation call” value is inactive: 0.

On to C16ORF54 (UniProt Q6UWD8), for which the “dose-dependent thermal stabilisation call” value is inactive: 0.

In the case of C3ORF26 (UniProt Q9BQ75), the “dose-dependent thermal stabilisation call” value was inactive: 0.

In the case of C1ORF55 (UniProt Q6IQ49), the “dose-dependent thermal stabilisation call” value was inactive: 0.

In the case of CASP8 (UniProt Q14790), the “dose-dependent thermal stabilisation call” value was inactive: 0.

CASP2 (UniProt P42575): the “dose-dependent thermal stabilisation call” value is inactive: 0.

With CASK (UniProt O14936), the “dose-dependent thermal stabilisation call” value was inactive: 0.

For C4B (UniProt P0C0L5), the “dose-dependent thermal stabilisation call” value is inactive: 0.

On to CAMK4 (UniProt Q16566), for which the “dose-dependent thermal stabilisation call” value is inactive: 0.

Turning to C6ORF47 (UniProt O95873), the “dose-dependent thermal stabilisation call” value is inactive: 0.

For the target C8ORF76 (UniProt Q96K31), the “dose-dependent thermal stabilisation call” value is inactive: 0.

Take C3ORF59 (UniProt Q8IYB1): the “dose-dependent thermal stabilisation call” value is inactive: 0.

Regarding C9ORF114 (UniProt Q5T280), the “dose-dependent thermal stabilisation call” value is inactive: 0.

Turning to C17ORF85 (UniProt Q53F19), the “dose-dependent thermal stabilisation call” value is inactive: 0.

As to CARHSP1 (UniProt Q9Y2V2), the “dose-dependent thermal stabilisation call” value was inactive: 0.
